According to paper PMC9217950:
No constants are given. Whether binding was seen depends on the method and setting. Binding seen in cells or lysates may run through a third protein. Some entries that bind do so weakly or less than the wild type. Where a sequence is shown, tags or fusion partners need not be part of it.

Amino acid sequences for entries named in this document (tags omitted).
UniProt P25963: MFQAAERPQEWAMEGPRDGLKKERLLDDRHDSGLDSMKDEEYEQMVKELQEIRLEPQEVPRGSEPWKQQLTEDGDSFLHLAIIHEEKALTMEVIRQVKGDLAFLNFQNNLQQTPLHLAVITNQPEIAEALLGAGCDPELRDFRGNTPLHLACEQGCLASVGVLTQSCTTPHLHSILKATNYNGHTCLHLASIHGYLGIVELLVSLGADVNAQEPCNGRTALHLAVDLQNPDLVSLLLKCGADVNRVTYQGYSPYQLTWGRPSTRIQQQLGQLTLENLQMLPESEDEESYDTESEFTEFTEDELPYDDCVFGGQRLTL
UniProt Q96J77: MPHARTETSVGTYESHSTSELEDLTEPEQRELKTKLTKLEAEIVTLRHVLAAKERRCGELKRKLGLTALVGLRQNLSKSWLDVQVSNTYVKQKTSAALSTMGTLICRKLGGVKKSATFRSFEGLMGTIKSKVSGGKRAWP

B1: PRDX3 in pCAGGS-MCS-FLAG (protein, UniProt P30048 62-256)
chain: APAVTQHAPYFKGTAVVNGEFKDLSLDDFKGKYLVLFFYPLDFTFVCPTEIVAFSDKANEFHDVNCEVVAVSVDSHFSHLAWINTPRKNGGLGHMNIALLSDLTKQISRDYGVLLEGSGLALRGLFIIDPNGVIKHLSVNDLPVGRSVEETLRLVKAFQYVETHGEVCPANWTPDSPTIKPSPAASKEYFQKVNQ

Biological target: AGIA-AirID-IκBα (human) (UniProt P25963)
Test: co-IP; lysate of HEK293T cells stably expressing AGIA-AirID-IκBα transfected with FLAG constructs; IP lysis buffer (25 mM Tris-HCl pH 7.5, 150 mM NaCl, 1 mM EDTA, 1% NP-40, 5% glycerol); anti-AGIA antibody, protein A Dynabeads, 4 °C; anti-FLAG blot

Molecule	binding
TPD52L3 in pCAGGS-MCS-FLAG (from UniProt Q96J77 1-140)	binds
B1	binds
